# Measurements as given in the supplement of paper PMC6411743.
# ± gives the standard deviation of the averaged measurements. This is a selection; strong and weak results do not stand in their true shares.
# How the values were obtained:
# Test in all cases: NP40-soluble protein abundance relative to vehicle (solubility fold change) (ratio); higher = more soluble protein in presence of ATP
# UniProt Q9NPJ3 = biological target: T1, UniProt Q9NPJ3
# T1 sequence (whole entry): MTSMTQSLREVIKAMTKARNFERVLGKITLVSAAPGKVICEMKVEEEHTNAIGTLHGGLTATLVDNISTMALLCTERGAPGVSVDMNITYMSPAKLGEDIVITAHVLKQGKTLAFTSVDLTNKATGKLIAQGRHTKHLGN
# In short: (§1)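 Jurkat crude lysate (Dounce-homogenised) was treated with eight concentrations from 0.1 to 10 mM for 10 min at room temperature, then 3 min at 37 °C. It was solubilised with 0.8% NP40 and benzonase (60 min, 4 °C) and ultracentrifuged, and the supernatant was TMT-labelled for LC-MS/MS. Intensities were vsn-normalised, and the value is the fold change against the NP40-processed vehicle per replicate, from three independent experiments.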
# [1] = biological target: T2, UniProt Q9NQ66 and related entries
# T2 sequence (whole entry): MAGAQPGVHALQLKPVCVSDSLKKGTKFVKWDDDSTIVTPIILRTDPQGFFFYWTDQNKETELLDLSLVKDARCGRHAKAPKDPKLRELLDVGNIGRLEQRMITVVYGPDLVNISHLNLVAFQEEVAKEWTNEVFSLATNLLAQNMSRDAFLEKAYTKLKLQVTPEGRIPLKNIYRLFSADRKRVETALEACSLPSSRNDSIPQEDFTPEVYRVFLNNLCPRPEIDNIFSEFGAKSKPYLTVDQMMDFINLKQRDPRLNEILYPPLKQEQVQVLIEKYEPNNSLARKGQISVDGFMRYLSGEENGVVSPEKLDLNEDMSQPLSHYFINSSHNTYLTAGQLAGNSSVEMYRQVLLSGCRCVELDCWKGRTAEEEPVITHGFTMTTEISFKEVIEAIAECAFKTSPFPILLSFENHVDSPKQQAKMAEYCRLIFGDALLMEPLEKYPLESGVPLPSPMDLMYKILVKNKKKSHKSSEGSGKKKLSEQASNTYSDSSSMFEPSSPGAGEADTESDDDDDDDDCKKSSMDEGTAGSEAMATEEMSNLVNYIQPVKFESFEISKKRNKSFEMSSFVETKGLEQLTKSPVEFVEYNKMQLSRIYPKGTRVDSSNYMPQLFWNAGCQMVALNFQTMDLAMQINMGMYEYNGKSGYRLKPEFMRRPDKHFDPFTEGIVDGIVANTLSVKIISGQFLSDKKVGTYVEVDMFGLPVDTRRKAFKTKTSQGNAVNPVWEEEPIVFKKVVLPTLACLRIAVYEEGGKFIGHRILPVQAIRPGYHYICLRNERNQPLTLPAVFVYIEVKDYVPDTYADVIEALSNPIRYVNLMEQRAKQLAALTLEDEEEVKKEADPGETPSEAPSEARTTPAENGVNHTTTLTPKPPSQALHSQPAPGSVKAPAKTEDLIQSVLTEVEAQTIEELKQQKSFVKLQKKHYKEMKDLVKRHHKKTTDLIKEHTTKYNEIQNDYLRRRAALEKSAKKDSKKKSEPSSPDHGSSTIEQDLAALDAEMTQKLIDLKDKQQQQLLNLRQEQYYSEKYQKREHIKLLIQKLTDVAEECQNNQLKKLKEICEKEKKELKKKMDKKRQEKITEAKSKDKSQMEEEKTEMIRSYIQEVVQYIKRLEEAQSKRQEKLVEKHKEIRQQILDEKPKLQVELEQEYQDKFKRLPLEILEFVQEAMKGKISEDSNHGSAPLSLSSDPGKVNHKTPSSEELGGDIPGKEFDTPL
# In short: as §1
# [2] = biological target: T3, UniProt Q9NQ86 and related entries
# T3 sequence (whole entry): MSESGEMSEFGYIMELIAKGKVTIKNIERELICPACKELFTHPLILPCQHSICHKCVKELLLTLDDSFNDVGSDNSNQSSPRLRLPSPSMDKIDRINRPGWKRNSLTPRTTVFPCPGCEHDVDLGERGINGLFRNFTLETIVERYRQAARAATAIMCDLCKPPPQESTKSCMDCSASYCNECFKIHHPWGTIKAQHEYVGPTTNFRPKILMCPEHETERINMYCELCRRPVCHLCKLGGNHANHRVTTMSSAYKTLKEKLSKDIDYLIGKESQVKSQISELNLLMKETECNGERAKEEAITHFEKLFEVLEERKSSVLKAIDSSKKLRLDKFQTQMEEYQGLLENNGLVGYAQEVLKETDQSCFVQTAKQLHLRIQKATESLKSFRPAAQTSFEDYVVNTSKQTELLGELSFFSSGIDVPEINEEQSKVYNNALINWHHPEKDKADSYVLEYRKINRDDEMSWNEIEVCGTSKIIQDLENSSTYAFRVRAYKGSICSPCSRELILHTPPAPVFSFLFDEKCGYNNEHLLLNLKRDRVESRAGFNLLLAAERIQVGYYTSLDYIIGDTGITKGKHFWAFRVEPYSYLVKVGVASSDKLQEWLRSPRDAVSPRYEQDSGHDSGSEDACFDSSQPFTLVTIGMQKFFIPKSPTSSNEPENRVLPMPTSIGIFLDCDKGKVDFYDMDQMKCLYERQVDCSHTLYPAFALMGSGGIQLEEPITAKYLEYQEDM
# In short: as §1
# [3] = biological target: T4, UniProt Q9NQC7 and related entries
# T4 sequence (whole entry): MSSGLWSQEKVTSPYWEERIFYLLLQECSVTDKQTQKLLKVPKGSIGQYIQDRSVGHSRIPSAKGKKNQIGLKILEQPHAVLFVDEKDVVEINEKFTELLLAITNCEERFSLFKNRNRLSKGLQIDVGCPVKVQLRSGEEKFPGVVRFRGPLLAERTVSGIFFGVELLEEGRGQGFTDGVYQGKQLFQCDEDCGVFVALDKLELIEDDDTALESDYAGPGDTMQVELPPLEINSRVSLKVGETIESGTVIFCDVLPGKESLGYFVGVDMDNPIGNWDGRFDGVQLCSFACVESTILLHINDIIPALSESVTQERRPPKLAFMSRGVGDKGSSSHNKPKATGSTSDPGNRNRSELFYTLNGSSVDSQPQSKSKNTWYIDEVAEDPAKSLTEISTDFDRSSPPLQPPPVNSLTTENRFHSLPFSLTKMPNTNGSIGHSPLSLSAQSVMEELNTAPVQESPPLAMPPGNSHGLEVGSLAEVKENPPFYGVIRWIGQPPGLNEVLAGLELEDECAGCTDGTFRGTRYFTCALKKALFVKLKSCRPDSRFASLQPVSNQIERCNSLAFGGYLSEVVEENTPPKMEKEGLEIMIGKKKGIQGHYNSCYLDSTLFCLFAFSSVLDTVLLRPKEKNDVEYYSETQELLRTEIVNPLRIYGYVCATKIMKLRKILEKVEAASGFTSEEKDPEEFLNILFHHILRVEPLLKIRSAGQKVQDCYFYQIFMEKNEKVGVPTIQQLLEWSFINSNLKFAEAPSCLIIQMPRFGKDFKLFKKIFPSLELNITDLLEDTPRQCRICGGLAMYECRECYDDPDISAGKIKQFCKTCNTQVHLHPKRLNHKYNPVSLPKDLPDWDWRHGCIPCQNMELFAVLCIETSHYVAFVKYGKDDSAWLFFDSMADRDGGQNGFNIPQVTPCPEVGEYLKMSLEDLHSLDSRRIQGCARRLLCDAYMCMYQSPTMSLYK
# In short: as §1
# [4] = biological target: T5, UniProt Q9NSI8 and related entries
# T5 sequence (whole entry): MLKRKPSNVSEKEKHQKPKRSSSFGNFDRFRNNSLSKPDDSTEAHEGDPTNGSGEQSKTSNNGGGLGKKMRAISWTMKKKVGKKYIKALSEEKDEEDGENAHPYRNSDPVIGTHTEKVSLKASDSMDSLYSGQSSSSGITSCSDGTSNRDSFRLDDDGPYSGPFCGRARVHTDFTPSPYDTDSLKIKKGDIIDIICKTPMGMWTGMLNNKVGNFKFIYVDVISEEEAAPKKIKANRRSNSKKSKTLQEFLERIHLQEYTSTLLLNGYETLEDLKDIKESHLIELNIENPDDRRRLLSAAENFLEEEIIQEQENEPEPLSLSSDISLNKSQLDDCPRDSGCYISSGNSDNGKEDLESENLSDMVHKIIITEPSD
# In short: as §1
# UniProt Q9NUS5 = biological target: T6, UniProt Q9NUS5
# T6 sequence (whole entry): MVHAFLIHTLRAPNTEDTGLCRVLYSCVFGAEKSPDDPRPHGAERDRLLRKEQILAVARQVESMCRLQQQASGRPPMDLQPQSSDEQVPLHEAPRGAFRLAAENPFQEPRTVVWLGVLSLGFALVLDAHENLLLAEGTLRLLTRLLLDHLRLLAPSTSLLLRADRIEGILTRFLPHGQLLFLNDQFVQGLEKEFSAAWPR
# In short: as §1
structure (smiles),measurement,setting,value
Nc1ncnc2c1ncn2[C@@H]1O[C@H](COP(=O)(O)OP(=O)(O)OP(=O)(O)O)[C@@H](O)[C@H]1O [adenosine triphosphate],NP40-soluble protein abundance,UniProt Q9NPJ3; concentration: 6mM,0.944 ± 0.08
same,NP40-soluble protein abundance,UniProt Q9NPJ3; concentration: 8mM,0.928 ± 0.07
same,NP40-soluble protein abundance,UniProt Q9NPJ3; concentration: 10mM,0.928 ± 0.046
same,NP40-soluble protein abundance,[1]; concentration: 1mM,1.01 ± 0.052
same,NP40-soluble protein abundance,[1]; concentration: 2mM,1.01 ± 0.013
same,NP40-soluble protein abundance,[1]; concentration: 4mM,1.02 ± 0.056
same,NP40-soluble protein abundance,[1]; concentration: 6mM,0.956 ± 0.074
same,NP40-soluble protein abundance,[1]; concentration: 8mM,0.95 ± 0.066
same,NP40-soluble protein abundance,[1]; concentration: 10mM,0.946 ± 0.043
same,NP40-soluble protein abundance,[2]; concentration: 1mM,0.995 ± 0.043
same,NP40-soluble protein abundance,[2]; concentration: 2mM,1.04 ± 0.061
same,NP40-soluble protein abundance,[2]; concentration: 4mM,1.02 ± 0.065
same,NP40-soluble protein abundance,[2]; concentration: 6mM,0.94 ± 0.04
same,NP40-soluble protein abundance,[2]; concentration: 8mM,1 ± 0.056
same,NP40-soluble protein abundance,[2]; concentration: 10mM,1.02 ± 0.032
same,NP40-soluble protein abundance,[3]; concentration: 1mM,0.955 ± 0.015
same,NP40-soluble protein abundance,[3]; concentration: 2mM,0.995 ± 0.1
same,NP40-soluble protein abundance,[3]; concentration: 4mM,1.01 ± 0.061
same,NP40-soluble protein abundance,[3]; concentration: 6mM,0.954 ± 0.072
same,NP40-soluble protein abundance,[3]; concentration: 8mM,1.01 ± 0.099
same,NP40-soluble protein abundance,[3]; concentration: 10mM,0.973 ± 0.048
same,NP40-soluble protein abundance,[4]; concentration: 1mM,0.942 ± 0.12
same,NP40-soluble protein abundance,[4]; concentration: 2mM,0.956 ± 0.13
same,NP40-soluble protein abundance,[4]; concentration: 4mM,0.972 ± 0.15
same,NP40-soluble protein abundance,[4]; concentration: 6mM,0.967 ± 0.13
same,NP40-soluble protein abundance,[4]; concentration: 8mM,0.924 ± 0.11
same,NP40-soluble protein abundance,[4]; concentration: 10mM,0.926 ± 0.093
same,NP40-soluble protein abundance,UniProt Q9NUS5; concentration: 1mM,0.987 ± 0.028
same,NP40-soluble protein abundance,UniProt Q9NUS5; concentration: 2mM,0.969 ± 0.032
same,NP40-soluble protein abundance,UniProt Q9NUS5; concentration: 4mM,0.947 ± 0.047
same,NP40-soluble protein abundance,UniProt Q9NUS5; concentration: 6mM,0.9792 ± 0.0048

# Two entries picked at random from those above:
structure (smiles),measurement,setting,value
Nc1ncnc2c1ncn2[C@@H]1O[C@H](COP(=O)(O)OP(=O)(O)OP(=O)(O)O)[C@@H](O)[C@H]1O [adenosine triphosphate],NP40-soluble protein abundance,UniProt Q9NUS5; concentration: 2mM,0.969 ± 0.032
same,NP40-soluble protein abundance,UniProt Q9NUS5; concentration: 6mM,0.9792 ± 0.0048
